Source: PubChem BioAssay AID1259254 (NCATS, 2017)
The whole screen tested about 59,000 reagents; shown is an unselected part. About 1,550 of them (2.6%) were called active. 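G2 share is only a proxy for re-replication; each gene was hit by three separate siRNAs, and active genes were retested.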 The numbers tell different reagents against one gene apart. Not all columns of the deposit are shown. Not given: the amount of reagent.

Purpose: 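Finding genes that stop cells copying their DNA twice in one cycle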 (primary screen)
Cells: human HCT116 colorectal cancer cells
Reagent: single siRNA against human genes
Duration: 3 days
Measured: 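Nuclei stained with Hoechst and imaged; cell-cycle phase assigned by DNA content; G2 share scaled per plate, non-targeting siRNA 0%, GMNN siRNA 100%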
Direction: G2 robust z-score and G2 cells, % of GMNN control: higher = more G2 cells, more excess DNA replication
Rule for the call: 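An siRNA counts as active if its G2 robust z-score lies at least 5 MADs above the screen median; here such calls match roughly 38% of GMNN control or more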

Gene | siRNA no. | G2 robust z-score | G2 cells, % of GMNN control | Call
GPIHBP1 | 1 | -0.853 | -3.03 | inactive
GPIHBP1 | 2 | -0.631 | -1.47 | inactive
GPIHBP1 | 3 | 2.49 | 20.5 | inactive
MGAM (maltase-glucoamylase) | 1 | -0.908 | -3.42 | inactive
MGAM (maltase-glucoamylase) | 2 | -0.943 | -3.66 | inactive
MGAM (maltase-glucoamylase) | 3 | -1.06 | -4.49 | inactive
NFKBIZ (NFKB inhibitor zeta) | 1 | -0.624 | -1.43 | inactive
NFKBIZ (NFKB inhibitor zeta) | 2 | -0.214 | 1.46 | inactive
NFKBIZ (NFKB inhibitor zeta) | 3 | -0.403 | 0.131 | inactive
SGIP1 (SH3GL interacting endocytic adaptor 1) | 1 | 1.5 | 13.5 | inactive
SGIP1 (SH3GL interacting endocytic adaptor 1) | 2 | -0.544 | -0.859 | inactive
SGIP1 (SH3GL interacting endocytic adaptor 1) | 3 | 0.73 | 8.1 | inactive
ARL4C (ARF like GTPase 4C) | 1 | -0.721 | -2.11 | inactive
ARL4C (ARF like GTPase 4C) | 2 | -0.56 | -0.972 | inactive
ARL4C (ARF like GTPase 4C) | 3 | -0.13 | 2.06 | inactive
OR5B12 (olfactory receptor family 5 subfamily B member 12) | 1 | -0.642 | -1.55 | inactive
OR5B12 (olfactory receptor family 5 subfamily B member 12) | 2 | 0.288 | 4.99 | inactive
OR5B12 (olfactory receptor family 5 subfamily B member 12) | 3 | -0.56 | -0.975 | inactive

Taken from above:
Entry of ARL4C (ARF like GTPase 4C) #2 under “Call”: inactive
Under “G2 robust z-score”, OR5B12 (olfactory receptor family 5 subfamily B member 12) #3 reads -0.56
NFKBIZ (NFKB inhibitor zeta) #3, G2 cells, % of GMNN control = 0.131

The results go on:
Gene | siRNA no. | G2 robust z-score | G2 cells, % of GMNN control | Call
CACNB3 (calcium voltage-gated channel auxiliary subunit beta 3) | 1 | 0.198 | 4.36 | inactive
CACNB3 (calcium voltage-gated channel auxiliary subunit beta 3) | 2 | 0.791 | 8.53 | inactive
CACNB3 (calcium voltage-gated channel auxiliary subunit beta 3) | 3 | -0.163 | 1.82 | inactive
WARS1P1 (tryptophanyl-tRNA synthetase 1 pseudogene 1) | 1 | 0.453 | 6.15 | inactive
WARS1P1 (tryptophanyl-tRNA synthetase 1 pseudogene 1) | 2 | -0.679 | -1.81 | inactive
WARS1P1 (tryptophanyl-tRNA synthetase 1 pseudogene 1) | 3 | 1.58 | 14.1 | inactive
SYT9 (synaptotagmin 9) | 1 | 0.179 | 4.23 | inactive
SYT9 (synaptotagmin 9) | 2 | 1.17 | 11.2 | inactive
SYT9 (synaptotagmin 9) | 3 | -0.585 | -1.15 | inactive
RAVER2 (ribonucleoprotein, PTB binding 2) | 1 | -1.23 | -5.68 | inactive
RAVER2 (ribonucleoprotein, PTB binding 2) | 2 | 2.11 | 17.8 | inactive
RAVER2 (ribonucleoprotein, PTB binding 2) | 3 | 0.108 | 3.72 | inactive
